Source: patent US20160052997A1
Results are given in words; binding and its absence hold for the method and conditions named. Binding can be weak; no strength is given.

Target: purified recombinant HA protein of H1N1 (A/Solomon Island/03/06) (Influenza A virus A/Solomon Island/03/06 (H1N1))
Experiment: SPR, Biacore T200

B1: CT120 (antibody, V domains shown)
VH: QVQLVQSGAEVKMPGSSVKVSCKTSGVFFSSHAISWVRQAPGQGLEWMGGISPMFGTTHYAQKFQGRVTITADQSTTTAYMELTSLTSEDTAVYYCARDGAGSYYPLNWFDPWGQGTLVTVSS
VL: EIVLTQSPATLSLSPGERATLSCRASENIWNNLAWYQQKPGQAPRLLISGASTGATGVPSRFRGSGSRTEFTLTISSLQSEDFAIYFCQQYNSWPRTFGPGTKVEIKR
  binding: binds
